This passage reports binding results from patent JP2007302676A.

Amino acid sequences for entries named in this document (tags omitted). A change or cut given only in a name is not applied to a line headed by its entry.
UniProt P13612: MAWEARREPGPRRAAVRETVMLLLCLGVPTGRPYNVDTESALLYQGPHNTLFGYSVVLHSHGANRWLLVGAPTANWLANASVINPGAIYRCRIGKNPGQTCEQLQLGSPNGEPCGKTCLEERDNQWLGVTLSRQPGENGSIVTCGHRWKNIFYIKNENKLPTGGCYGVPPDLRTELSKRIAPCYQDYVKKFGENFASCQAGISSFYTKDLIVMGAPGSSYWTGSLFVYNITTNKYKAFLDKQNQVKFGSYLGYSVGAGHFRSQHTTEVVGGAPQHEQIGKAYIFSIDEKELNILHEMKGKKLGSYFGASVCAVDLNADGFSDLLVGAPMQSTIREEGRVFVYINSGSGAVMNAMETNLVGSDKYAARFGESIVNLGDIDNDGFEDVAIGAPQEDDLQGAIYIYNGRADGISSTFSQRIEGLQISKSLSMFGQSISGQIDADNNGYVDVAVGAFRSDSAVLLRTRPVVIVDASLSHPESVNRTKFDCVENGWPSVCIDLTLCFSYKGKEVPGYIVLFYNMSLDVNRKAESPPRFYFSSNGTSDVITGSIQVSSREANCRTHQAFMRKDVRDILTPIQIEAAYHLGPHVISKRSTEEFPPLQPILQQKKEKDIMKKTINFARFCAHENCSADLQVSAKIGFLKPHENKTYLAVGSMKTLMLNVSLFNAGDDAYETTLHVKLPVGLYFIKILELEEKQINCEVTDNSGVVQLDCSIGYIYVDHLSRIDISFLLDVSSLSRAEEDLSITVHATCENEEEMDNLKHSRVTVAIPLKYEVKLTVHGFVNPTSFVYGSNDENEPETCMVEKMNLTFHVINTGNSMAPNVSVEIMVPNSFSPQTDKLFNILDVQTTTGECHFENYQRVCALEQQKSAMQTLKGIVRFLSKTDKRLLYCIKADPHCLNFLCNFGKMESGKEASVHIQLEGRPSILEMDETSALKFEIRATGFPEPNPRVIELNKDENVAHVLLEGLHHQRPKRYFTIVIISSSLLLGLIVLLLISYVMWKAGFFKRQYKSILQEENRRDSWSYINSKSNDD
UniProt P26010: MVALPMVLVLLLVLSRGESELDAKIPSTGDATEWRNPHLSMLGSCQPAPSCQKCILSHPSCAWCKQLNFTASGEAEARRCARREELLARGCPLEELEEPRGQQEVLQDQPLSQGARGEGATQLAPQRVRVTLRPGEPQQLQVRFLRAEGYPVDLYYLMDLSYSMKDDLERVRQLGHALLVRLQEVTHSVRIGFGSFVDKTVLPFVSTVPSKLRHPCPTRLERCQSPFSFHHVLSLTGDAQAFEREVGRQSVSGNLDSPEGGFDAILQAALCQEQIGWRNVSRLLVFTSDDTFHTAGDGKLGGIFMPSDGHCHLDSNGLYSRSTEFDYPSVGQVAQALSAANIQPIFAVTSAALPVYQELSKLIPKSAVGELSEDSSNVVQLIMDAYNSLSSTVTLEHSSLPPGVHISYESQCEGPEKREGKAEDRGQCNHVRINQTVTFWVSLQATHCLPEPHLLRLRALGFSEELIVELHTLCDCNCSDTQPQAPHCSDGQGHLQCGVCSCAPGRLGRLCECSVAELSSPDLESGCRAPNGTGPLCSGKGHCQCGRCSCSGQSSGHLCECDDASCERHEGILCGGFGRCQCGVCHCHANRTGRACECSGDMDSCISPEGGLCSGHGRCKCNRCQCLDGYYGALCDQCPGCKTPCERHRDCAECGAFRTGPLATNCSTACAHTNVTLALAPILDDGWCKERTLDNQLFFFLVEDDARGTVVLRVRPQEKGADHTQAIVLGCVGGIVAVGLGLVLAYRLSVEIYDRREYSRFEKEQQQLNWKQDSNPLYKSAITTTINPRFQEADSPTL

The assay addresses 全長ヒトインテグリンアルファ4ベータ7 (expressed in 293 cells, purified by Fib504 affinity chromatography) (human) (UniProt P13612+P26010). Description: phage-displayed Fab on immobilised human alpha4beta7.

Results are given in words; binding and its absence hold for the method and conditions named. Some entries that bind do so weakly or less than the wild type.

B1: Fib504K−RFグラフト (Fab) (Fab, V domains shown)
VH: EVQLVESGGGLVQPGGSLRLSCAASGFFITNNYWGWVRQAPGKGLEWVGYISYSGSTSYNPSLKSRFTISRDTSKNTFYLQMNSLRAEDTAVYYCAMTGSSGYFDFWGQGTLVTVSS
VL: DIQMTQSPSSLSASVGDRVTITCRASESVDTYLHWYQQKPGKAPKLLIKYASQSISGVPSRFSGSGSGTDFTLTISSLQPEDFATYYCQQGNSLPNTFGQGTKVEIKR
Regarding B1, the binding entry was “binds”.
